Measured values as given in PubChem BioAssay AID493014 (National Center for Advancing Translational Sciences (NCATS), 2011).
Some of the results follow. Shown are side measurements of this screen, not its main read-out; they come without a call. Most of these compounds were active or inconclusive in the main read-out, so they are no random draw. Potencies come from curve fits of mixed quality, noted in brackets.

Test: qHTS Assay to Find Inhibitors of Chronic Active B-Cell Receptor Signaling
Details: ABC-DLBCL IkBa-CBG/CBR reporter, luminescence ratio (green luciferase fused to IkBa over red control in TMD8 lymphoma cells), 4 h
Method in brief: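 Compounds up to 46 uM were incubated four hours with TMD8 cells whose green CBG68 luciferase is fused to IkappaBalpha; red CBR luminescence normalised the signal, and concentration-effect curves were fitted to fusion, red and ratio data.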

[1] = measured here: CBR red luminescence, cell number
[2] = measured here: IkBa-CBG green luminescence

Row | Compound | AC50 [1] | AC50 [2]
1 | Cc1cc(C)c(COc2ccc(/C=N/n3c(C)n[nH]c3=S)cc2)c(C)c1 | 29.1 µM [falling, single point] | 
2 | CCN(C(=O)COc1ncnc2ccccc12)C1CCCCC1 | 6.51 µM [rising, single point] | 
3 | CCOc1ccc(NC(=O)c2cc([N+](=O)[O-])ccc2N2CCOCC2)cc1 | 16.4 µM [falling, single point] | 
4 | CCN(CC)C(=O)c1cc(-c2ccc(Br)cc2)on1 | 35.5 µM [falling, single point] | 
5 | Cc1ccc(F)cc1S(=O)(=O)NCc1ccc(N2CCN(C)CC2)cc1 | 7.08 µM [rising, full curve, poor fit] | 
6 | COC(=O)CSc1nc2nc(-c3cccs3)cc(C(F)(F)F)c2c(=O)[nH]1 | 14.1 µM [rising, single point] | 
7 | O=C(CSc1nc2ccccc2nc1N1CCCC1)Nc1ccc(F)cc1 | 4.47 µM [falling, full curve, poor fit] | 
8 | Cc1ccc(-c2ccc(SCC(=O)NC3CCCC3)nn2)cc1 | 35.5 µM [rising, single point] | 35.5 µM [falling, single point]
9 | CN(C)c1ccc(C(=O)OCC(=O)c2cccs2)cc1 | 16.4 µM [falling, single point] | 
10 | COc1ccc(NC(=O)CSc2n[nH]c(-c3ccncc3)n2)cc1Cl | 4.11 µM [rising, full curve, poor fit] | 
11 | Cc1cc2c(cn1)C(CCC#N)(CCC#N)c1ccccc1-2 | 8.91 µM [rising, partial curve] | 
12 | COc1ccc(/C=N/NC(=O)c2ccc3c(c2)OCCO3)cc1[N+](=O)[O-] | 1.84 µM [falling, full curve, poor fit] | 
13 | COC(=O)C1=C(C)N(Cc2ccccc2)C(=NCc2cc(OC)c(OC)c(OC)c2)N[C@H]1c1ccccc1 | 11.2 µM [falling, partial curve] | 
14 | O=C(CN1CCN(C(=O)c2cccc(F)c2)CC1)NC1CCCCC1 | 4.11 µM [falling, full curve, poor fit] | 
15 | N/N=C/C(=N\Nc1ccc(Cl)cc1)C(=O)c1ccncc1 | 2.24 µM [rising, full curve, poor fit] | 
16 | CCCn1cnc2cc(NCc3cccc(OC)c3)ccc21 | 5.17 µM [falling, partial curve] | 
17 | COc1ccccc1-c1nnc2sc(COc3ccc(Cl)cc3)nn12 | 9.2 µM [falling, partial curve, poor fit] | 

Record cards, from the list above.
`CCN(CC)C(=O)c1cc(-c2ccc(Br)cc2)on1` is listed with AC50 [1]: 35.5 µM [falling, single point]
`CN(C)c1ccc(C(=O)OCC(=O)c2cccs2)cc1` is listed with AC50 [1]: 16.4 µM [falling, single point]

Next part.

Row | Compound | AC50 [1] | AC50 [2]
18 | N#Cc1ccccc1OCC(=O)N1CCN(S(=O)(=O)c2ccc(Cl)cc2)CC1 | 16.4 µM [falling, partial curve] | 
19 | CC1(C)Oc2ccc3ccc(=O)oc3c2-c2cn[nH]c21 |  | 3.26 µM [falling, single point]
20 | Cn1c2ccc(F)cc2c2ncn(CCN3CCOCC3)c(=O)c21 | 0.00517 µM [rising, full curve, poor fit] | 
21 | Cc1cccc2cc(=O)[nH]c(C)c12 | 10 µM [falling, partial curve] | 
22 | Cc1cc(=O)oc2cc(OCC(=O)N3CC[C@@]4(O)CCCC[C@H]4C3)c(Cl)cc12 | 0.1 µM [rising, full curve, poor fit] | 
23 | CSc1nc2nccc(-c3ccc(-c4ccccc4)cc3)n2n1 | 1.84 µM [rising, partial curve, poor fit] | 
24 | O=C(NC1CC1)C1CCN(S(=O)(=O)c2ccc(Cl)c([N+](=O)[O-])c2)CC1 | 2.59 µM [falling, partial curve, poor fit] | 
25 | Cc1ccc(C)c(NC(=S)NNC(=O)c2csc3c2CCCC3)c1 | 0.082 µM [falling, partial curve, poor fit] | 
26 | N#C/C(=C\c1cccc(O)c1)c1nc2ccccc2o1 | 35.5 µM [falling, single point] | 
27 | CCCCNc1c(-c2ccc(SC3CCCCC3)cc2)nc2cnccn12 | 4.61 µM [rising, full curve] | 
28 | C/C(CC(=O)Nc1ccc(Cl)cc1C(F)(F)F)=N\NC(=O)c1cccs1 | 11.2 µM [falling, partial curve] | 
29 | O=C(CCCN1C(=O)/C(=C/c2cccc(Br)c2)SC1=S)N1CCOCC1 | 4.47 µM [falling, full curve, poor fit] | 
30 | COC(=O)NNC(=O)c1ccc(C)c(Br)c1 | 2.59 µM [rising, partial curve, poor fit] | 
31 | CN1CCN(CCC(=O)N2c3ccccc3Sc3ccc(C(F)(F)F)cc32)CC1 | 5.8 µM [rising, full curve, poor fit] | 
32 | COc1ccc(CNC(=O)c2cnc(C)cn2)c(OC)c1 | 35.5 µM [rising, single point] | 
33 | Cc1ccc(C)c(OCCCCN2CCNCC2)c1C | 35.5 µM [falling, single point] | 
